According to publication PMC7279496:
No constants are given. Whether binding was seen depends on the method and setting. A result given as binding can be weak or reduced; the word gives no strength.

Molecular target: T1, recombinant Aim23p (yeast mitochondrial translation initiation factor 3) (S. cerevisiae) (UniProt P47015)
T1 sequence: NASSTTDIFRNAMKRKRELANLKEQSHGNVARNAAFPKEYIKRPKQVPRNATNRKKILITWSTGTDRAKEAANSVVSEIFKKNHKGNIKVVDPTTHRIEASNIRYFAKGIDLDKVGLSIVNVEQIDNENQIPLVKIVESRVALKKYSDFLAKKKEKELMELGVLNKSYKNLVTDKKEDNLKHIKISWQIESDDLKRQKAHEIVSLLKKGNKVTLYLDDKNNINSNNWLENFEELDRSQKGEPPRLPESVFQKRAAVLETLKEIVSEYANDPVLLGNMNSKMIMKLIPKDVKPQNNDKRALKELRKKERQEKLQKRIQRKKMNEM
Experiment: native gel or EMSA; recombinant proteins, alone or together, separated by non-denaturing PAGE with imidazole-HEPES buffer system, gel pH 7.4; increasing amounts of Pet111p added to Aim23p; bovine serum albumin present as competitor; both purified

binding: binds
Substance: recombinant Pet111p (without mitochondrial targeting sequence) (S. cerevisiae)
